Values from PubChem BioAssay AID1159600 (NIAID, 2016).
In all, the deposit lists 756 reagents; this is an unselected part. 134 of them (18%) were called active. 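Active includes both reduced and increased reporter signal, though most active siRNAs reduce it; R848 dose unknown.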 A number with no mark means an inactive call. The record does not give: the amount of reagent.

Aim: 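Which TLR pathway genes support TNF promoter activation by R848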 (primary screen)
Cell system: human THP-1 TNF reporter clone B5, made macrophage-like with PMA
Reagent: single siRNA against human genes
Time to read-out: 4 h ligand stimulation, assayed 48 to 72 h after siRNA transfection
Conditions: R848 (TLR7/8 agonist) for 4 hours before lysis; dose not given
Detection: 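TNF promoter firefly to renilla luciferase ratio after 4 h R848, scaled per plate by median and MAD, robust z-score against negative controls, mean of replicates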
Reading the numbers: TNF reporter z-score: higher = stronger TNF promoter reporter signal after R848
Hit rule: 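Active where mean z-score is about 1.5 or more from zero in either direction; depositor grades use cut-offs of 1, 1.5, 2 and 2.5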
Calls: active = strong change in TNF reporter (up or down); inactive = little change

no.	Target gene	PubChem SID	TNF reporter z-score
1	UBE2N	SID303070570	-0.234
2	UBE2N	SID303070571	-1.29
3	UBE2N	SID303070572	0.426
4	UBE2N	SID303070573	-0.031
5	UBE2N	SID303070574	-1.52 (active)
6	UBE2N	SID303070575	0.9
7	PIK3R5	SID303070930	-0.427
8	PIK3R5	SID303070931	-0.0411
9	PIK3R5	SID303070932	0.737
10	PIK3R5	SID303070933	-0.0483
11	PIK3R5	SID303070934	-0.194
12	PIK3R5	SID303070935	0.406
13	TNF	SID303071092	0.0424
14	TNF	SID303071093	-1.03
15	TNF	SID303071094	-0.804
16	TNF	SID303071095	-1.16
17	TNF	SID303071096	-0.811
18	TNF	SID303071097	-2.17 (active)
19	MAP2K1	SID303070690	-0.797
20	MAP2K1	SID303070691	1.32
21	MAP2K1	SID303070692	-1.47
22	MAP2K1	SID303070693	-0.318
23	MAP2K1	SID303070694	0.547
24	MAP2K1	SID303070695	1.39
25	MAP2K2	SID303070696	-0.504
26	MAP2K2	SID303070697	1.07
27	MAP2K2	SID303070698	-1.44
28	MAP2K2	SID303070699	0.895
29	MAP2K2	SID303070700	0.677
30	MAP2K2	SID303070701	0.141
31	NFKB2	SID303070654	-0.0609
32	NFKB2	SID303070655	-0.322
33	NFKB2	SID303070656	0.0476
34	NFKB2	SID303070657	-0.506
35	NFKB2	SID303070658	-1.6 (active)
36	NFKB2	SID303070659	0.348
37	TLR4	SID303070456	1.76 (active)
38	TLR4	SID303070457	-0.184
39	TLR4	SID303070458	-0.805
40	TLR4	SID303070459	0.413
41	TLR4	SID303070460	-0.152
42	TLR4	SID303070461	-0.9
43	RAC1	SID303070936	-0.235
44	RAC1	SID303070937	-1.13
45	RAC1	SID303070938	0.547
46	RAC1	SID303070939	-0.72
47	RAC1	SID303070940	-0.31
48	RAC1	SID303070941	-1.55 (active)
49	TBK1	SID303070816	-0.811
50	TBK1	SID303070817	-0.805
51	TBK1	SID303070818	0.0932
52	TBK1	SID303070819	1.25
53	TBK1	SID303070820	0.485
54	TBK1	SID303070821	0.284
55	NFKBIB	SID303070636	-1.56 (active)
56	NFKBIB	SID303070637	-0.529
57	NFKBIB	SID303070638	0.022
58	NFKBIB	SID303070639	-1.56 (active)
59	NFKBIB	SID303070640	1.1
60	NFKBIB	SID303070641	-0.643
61	MAPK1	SID303070708	-0.231
62	MAPK1	SID303070709	-0.529
63	MAPK1	SID303070710	1.4
64	MAPK1	SID303070711	0.242
65	MAPK1	SID303070712	-0.643
66	MAPK1	SID303070713	-0.256
67	IRAK3	SID303071140	1.47
68	IRAK3	SID303071141	0.298
69	IRAK3	SID303071142	0.0575
70	IRAK3	SID303071143	-0.47
71	IRAK3	SID303071144	-0.232
72	IRAK3	SID303071145	-0.423
73	TRADD	SID303070840	-3.44 (active)
74	TRADD	SID303070841	-0.934
75	TRADD	SID303070842	0.785
76	TRADD	SID303070843	-0.205
77	TRADD	SID303070844	1.02
78	TRADD	SID303070845	-3.11 (active)

8 entries from above, set out differently.
Target gene,PubChem SID,TNF reporter z-score
MAPK1,SID303070710,1.4
MAPK1,SID303070711,0.242
MAPK1,SID303070712,-0.643
MAPK1,SID303070713,-0.256
IRAK3,SID303071140,1.47
IRAK3,SID303071141,0.298
IRAK3,SID303071142,0.0575
IRAK3,SID303071143,-0.47
